Some of these results come from one statement about several compounds together. At least one compound was matched to its structure with a doubt left.
Test system: wild-type HIV-1 strain IIIB
Assay: Anti-HIV-1 Cell Culture Assay (EC50)
Type: cell-based
Conditions: MT2 cells infected with HIV-1 IIIB, XTT readout, 5 days; read-out: protease inhibition activity represented by HIV EC50

SMILES: CC(C)c1nc(CN(C)C(=O)N[C@@H](CCN2CCOCC2)C(=O)N[C@H](CC[C@H](Cc2ccccc2)NC(=O)OCc2cncs2)Cc2ccccc2)cs1 [Example S]
- EC50: > 20 µM

— patent publication US8067449B2, “Modulators of pharmacokinetic properties of therapeutics” (Gilead Sciences, Inc., priority 2006, dated 2011)
